# PubChem BioAssay AID493014 (National Center for Advancing Translational Sciences (NCATS), 2011)
# Some of the results follow. The main result of the screen is listed elsewhere. These columns were measured beside it and carry no call. The list favours compounds with an active or inconclusive main result. Potencies come from curve fits of mixed quality, noted in brackets.
# Test: qHTS Assay to Find Inhibitors of Chronic Active B-Cell Receptor Signaling
# Settings: ABC-DLBCL IkBa-CBG/CBR reporter, luminescence ratio (green luciferase fused to IkBa over red control in TMD8 lymphoma cells), 4 h
# How it was run: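 TMD8 human ABC-DLBCL cells with doxycycline-inducible IκBα–green luciferase fusion and unfused red luciferase, in 0.5% FBS medium; compounds up to 46 uM, 4 h at 37C. Green/red luminescence ratio, filter-overlap corrected, fitted to concentration-response curves.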
# [1] = measured here: CBR red luminescence, cell number
# [2] = measured here: IkBa-CBG green luminescence
SMILES,AC50 [1],AC50 [2]
O=C1CCCN1CC(CN1CCOCC1)Sc1nc2ccccc2c(=O)n1-c1ccccc1 (stereo unspecified),"7.08 µM [rising, partial curve, poor fit]",–
COc1ccc(NC2=NCC(Cc3ccc(Br)cc3)S2)cc1 (stereo unspecified),–,"18.4 µM [falling, partial curve, poor fit]"
Cc1c(NC(=O)CCCN2C(=O)c3cccc4cccc(c34)C2=O)c(=O)n(-c2ccccc2)n1C,"4.47 µM [rising, full curve, poor fit]",–
COc1cc(-c2noc(-c3ccco3)n2)cc(OC)c1OC,"5.01 µM [rising, full curve]",–
C=CCn1c(NCc2ccccc2OC)nc2ccccc21,"15.8 µM [falling, single point]",–
N#Cc1ccsc1NC(=O)CN1CCN(c2ccccc2)CC1,"20.6 µM [rising, single point]",–
O=C(O)CC(c1cccc([N+](=O)[O-])c1)N1Cc2ccccc2C1=O (stereo unspecified),"35.5 µM [rising, single point]",–
O=C(Cc1ccc([N+](=O)[O-])cc1)N1N=C(C2CC2)CC1(O)C(F)(F)F (stereo unspecified),"0.126 µM [rising, full curve, poor fit]",–
Cc1cc2nc(-c3ccc(NC(=O)C(C)C)cc3)oc2cc1C,"29.1 µM [rising, single point]",–
CC(C)Cc1nc(Nc2ccc(S(=O)(=O)N3CCCC3)cc2)c2nnn(Cc3ccccc3)c2n1,"2.91 µM [falling, full curve, poor fit]","2.91 µM [rising, full curve]"
COc1cccc(NC(=O)CSc2nnc(-c3ccoc3C)n2-c2ccccc2)c1,"20.6 µM [falling, single point]","8.2 µM [rising, partial curve, poor fit]"
COC(=O)c1c(C)oc2ccc(NS(=O)(=O)c3cc(OC)ccc3OC)cc12,–,"6.51 µM [rising, partial curve, poor fit]"
O=C(NCCCCc1ccccc1)c1cccc(Br)c1,"4.47 µM [falling, partial curve, poor fit]",–
CC(=O)Nc1ccc(S(=O)(=O)n2cnc3ccccc32)cc1,"6.51 µM [falling, partial curve, poor fit]",–
O=C(CC(C(=O)NCc1ccccc1)c1nc2ccccc2c(=O)[nH]1)NCc1ccccc1 (stereo unspecified),"3.16 µM [rising, partial curve]",–
Cc1nonc1NC(=O)CSc1ccc(-c2ccccc2)nn1,"15.8 µM [rising, partial curve, poor fit]",–
O=C(c1cccs1)N1N=C(c2ccccc2)CC1c1ccc(O)cc1 (stereo unspecified),"20.6 µM [falling, single point]",–
Nc1nonc1-n1nnc(C(=O)N/N=C/c2ccc(OCc3ccc(F)cc3)cc2)c1COc1ccccc1,"35.5 µM [rising, single point]",–
O=c1c2ccccc2[nH]c(=S)n1CCN1CCc2ccccc2C1,"35.5 µM [falling, single point]",–
CCOc1ccccc1OCCCOc1ccc(C)cc1Br,"17.8 µM [rising, partial curve]",–
CC(C)(C)NC(=O)NC(=O)COC(=O)C1CC(=O)N(Cc2ccccc2)C1 (stereo unspecified),"35.5 µM [falling, single point]",–

# Compounds above containing a furan ring, fused or not:
SMILES,AC50 [1],AC50 [2]
COc1cc(-c2noc(-c3ccco3)n2)cc(OC)c1OC,"5.01 µM [rising, full curve]",–
COc1cccc(NC(=O)CSc2nnc(-c3ccoc3C)n2-c2ccccc2)c1,"20.6 µM [falling, single point]","8.2 µM [rising, partial curve, poor fit]"
COC(=O)c1c(C)oc2ccc(NS(=O)(=O)c3cc(OC)ccc3OC)cc12,–,"6.51 µM [rising, partial curve, poor fit]"

# Additional entries:

SMILES,AC50 [1],AC50 [2]
Cc1cc(NC(=O)c2c(F)c(F)c(F)c(F)c2F)no1,"29.1 µM [falling, single point]",–
O=C(COc1ccc(Cl)cc1Cl)NNC(=S)NC(=O)c1ccco1,"31.6 µM [rising, partial curve, poor fit]",–
CCCCc1ccc(Nc2nc(CCC)cc(=O)[nH]2)cc1,"23.1 µM [rising, partial curve]",–
Cc1cc(C(C)(C)CC(C)(C)C)ccc1OCCOCC[N+](C)(C)Cc1ccccc1,"20.6 µM [falling, single point]",–
CC(C)(C)NC(=O)C(c1ccco1)N(C(=O)Cn1nnc(-c2ccc(F)cc2)n1)c1ccccc1F (stereo unspecified),"0.0517 µM [rising, full curve, poor fit]",–
O=C(Nc1ccc(S(=O)(=O)N2CCCCC2)cc1)c1ccc(F)cc1,"35.5 µM [falling, partial curve, poor fit]",–
CCOC(=O)C1CCN(C(=O)c2ccc3c(=O)n4nc(Nc5cc(C)ccc5C)sc4nc3c2)CC1,"35.5 µM [falling, single point]",–
COc1ccc2nc(C)cc(Nc3ccccc3O)c2c1,"35.5 µM [falling, single point]","1.41 µM [rising, full curve, poor fit]"
COC(=O)c1ccccc1NC(=O)CSc1nnc(-c2cccnc2)o1,"7.08 µM [falling, partial curve]",–
Cc1nn(Cc2c(F)c(F)c(F)c(F)c2F)c(C)c1NC(=O)c1ccc(COc2ccccc2Cl)o1,"5.01 µM [falling, partial curve, poor fit]",–
O=C(NCc1ccco1)C(=O)c1cn(CC(=O)N2CCCCC2)c2ccccc12,"15.8 µM [falling, single point]",–
CCCCN1C(=O)N(C)C2C1N(C)C(=O)N2CCCC (stereo unspecified),"0.82 µM [rising, full curve, poor fit]","10.3 µM [falling, partial curve, poor fit]"
CCC[N+]1(CC#CCC(c2ccccc2)c2ccccc2)CCCCC1,"3.16 µM [falling, partial curve]",–
O=C1c2ccc(-c3ccc4c(c3)C(=O)N(CCO)C4=O)cc2C(=O)N1CCO,"5.62 µM [rising, single point]",–
CCCCCC(=O)Nc1cccc(C2=NOC3(C2)C[C@H](C(N)=O)N(C(=O)COc2ccc(Cl)cc2)C3)c1 (stereo partly specified),"22.4 µM [falling, single point]",–
Cc1cccc(N=C2NC(=O)/C(=C/c3cccn3C)S2)c1C,"3.16 µM [falling, partial curve, poor fit]",–
CN(Cc1c(C(=O)N/N=C/c2cccc(O)c2)nnn1-c1nonc1N)c1ccccc1,"35.5 µM [falling, partial curve, poor fit]","15.8 µM [rising, partial curve, poor fit]"
CCc1ccc(NCc2nc(-c3ccccc3)no2)cc1,"2.31 µM [rising, full curve, poor fit]",–
Fc1ccc(NC(=S)Nc2ccccc2N2CCOCC2)cc1Cl,"35.5 µM [rising, single point]",–
CCCOC(=O)c1ccc(Oc2cn[nH]c2-c2ccc(OCC)cc2O)cc1,"25.1 µM [falling, single point]",–
CCN(C(=O)CN1C(=O)S/C(=C\C=C\c2ccccc2)C1=O)C1CCS(=O)(=O)C1 (stereo unspecified),"2 µM [falling, full curve, poor fit]",–

SMILES,AC50 [1],AC50 [2]
O=C(Nc1ccn(-c2ccccc2)n1)c1ccc(Cl)cc1,"29.1 µM [falling, single point]",–
O=C(Nc1ccc(Cl)cn1)C1CCCN(c2ncnc3c2nc2n3CCCCC2)C1 (stereo unspecified),"2.82 µM [rising, partial curve, poor fit]",–
CCC(c1nnnn1Cc1ccco1)N(CCc1ccccc1)Cc1cc2cc(C)ccc2[nH]c1=O (stereo unspecified),"0.708 µM [falling, partial curve, poor fit]",–
CCCC(=O)Nc1ccc(Br)c(Cl)c1,"16.4 µM [rising, partial curve, poor fit]",–
O=C(CS(=O)(=O)c1cn(CC(=O)N2CCOCC2)c2ccccc12)Nc1ccccc1,"11.2 µM [falling, partial curve, poor fit]",–
Nc1ccc2oc3ccc(N)cc3c(=O)c2c1,"29.1 µM [rising, single point]",–
COc1ccc(-c2nn(C)c(=O)c3ccccc23)cc1CNS(C)(=O)=O,–,"23.1 µM [falling, partial curve, poor fit]"
CC(NCC1(N2CCOCC2)CCCCC1)C(=O)N1CCc2ccccc21 (stereo unspecified),"1.46 µM [falling, partial curve, poor fit]",–
COc1cc(OC)cc(C(=O)Nc2ccc(N(C)C)c3ccccc23)c1,"7.94 µM [rising, partial curve, poor fit]",–
COC(=O)c1nnn(-c2cccc(Cl)c2)c1C(=O)OC,"35.5 µM [falling, single point]",–
CCCS/C(N)=N/N=C/c1ccccc1O,"13 µM [falling, partial curve]",–
CCCN=C(C)c1c(-c2ccccc2)[nH]n(-c2nc3ccccc3s2)c1=O,"6.51 µM [rising, partial curve, poor fit]",–
COc1ccc2[nH]c(C(=O)Nc3cccc(C)n3)cc2c1,"8.91 µM [falling, partial curve, poor fit]",–
CC1(C)Cc2c(cnn2-c2cccc(F)c2)C(NC(=O)c2csnn2)C1 (stereo unspecified),"3.98 µM [falling, single point]",–
O=C(NCC1CC1)Nc1ccc(Cl)cc1,"0.794 µM [rising, full curve, poor fit]",–
COc1ccccc1/C=C(\C#N)C(=O)c1cccn1C,"17.8 µM [falling, single point]",–
Brc1ccc(/C=N/Nc2ccc3ccccc3n2)cc1,"15.8 µM [falling, partial curve]",–
CCC(C)(C)n1nnnc1C(c1cc(OC)c(OC)c(OC)c1)N1CCN(c2ccccc2)CC1 (stereo unspecified),"0.13 µM [rising, full curve, poor fit]",–
COc1ccccc1NC(=O)/C=C/C(=O)O,"35.5 µM [falling, single point]",–
